# Data as given in patent US20230190835A1, “PROBIOTIC BACTERIA FOR TREATING ALZHEIMER'S DISEASE” (RRW B.V., priority 2020, published 2023).
# At least one structure is not confirmed: it was looked up by name or label, or the drawing left a doubt.
# System: C. elegans nematode strain with inducible amyloid-β accumulation (CL4176)
# Assay: Alzheimer's disease paralysis assay
# Format: in vivo
# From the text: The effect of probiotic bacteria and their combinations with other active agents has been studied in C. elegans nematode strains as an animal model for amyloidoses such as Alzheimer's disease. These strains accumulate amyloid-β peptides that form plaques in the nematodes and lead to paralysis of the animals. In certain strains, such as strain CL4176, Aβ accumulation occurs only in response to heat shock. Thus, the Alzheimer's disease pattern is inducible in these strains. The number of paralyzed nematodes after a certain period of time following induction of Aβ accumulation indicates the extent of Alzheimer's disease. Thus, the effect of certain substances to which the nematodes are exposed on the number of paralyzed animals is a measure of the anti-Alzheimer effect of these substances.
# Nematodes of strain CL4176 were synchronized at the young larval stage and allowed to grow to the L4 stage on normal growth medium for 72 h at 16° C. The probiotic bacteria to be tested were added to the growth medium. Then the nematodes were exposed to the test substance and the temperature was increased to 25° C. This heat shock induced Aβ accumulation, simulating the onset of Alzheimer's disease. Approximately every 24 h, the number of animals that were still mobile and those that were paralyzed as a result of Aβ accumulation was determined.
# C. elegans of strain CL4176 were exposed to a mixture of different probiotic bacteria at a bacterial concentration of 50 cfu (colony-forming units) in this assay. […]
# The two probiotic bacterial strains Lactobacillus rhamnosus and Lactobacillus plantarum were allowed to grow to stationary phase and mixed with the normal diet of nematodes (OP50) E. coli bacteria). […] The number of paralyzed animals was checked every 24 h and determined after 96 h.
# In the described Alzheimer's disease animal model assay, the effect of the bacterial strain Pseudomonas fluorescens was tested. […] The number of paralyzed nematodes was determined 96 h after induction of Aβ accumulation.
structure (smiles),measurement,setting,value
"COc1cc(/C=C/C(=O)CC(=O)/C=C/c2ccc(O)c(OC)c2)ccc1O [curcumin, (E,E)-1,7-bis-(4-hydroxy-3-methoxyphenyl)-1,6-heptadiene-3,5,-dione]",number of paralyzed nematodes,"0.08% (v/v), 96 h, FIGS. 3 and 4",reduced
same,"paralytic nematodes, individually","Example 3, 96 h after induction of Aβ accumulation, FIGS. 7 and 8",reduction in paralytic nematodes
same,effect of combination with Pseudomonas fluorescens,"combination of Pseudomonas fluorescens and active agent, 96 h after induction of Aβ accumulation, FIGS. 7 and 8",strong synergistic increase in effect
